Laboratory results reported in article PMC5833852.
These are yes or no findings as the source states them, for the method shown. Binding seen in cells or lysates may run through a third protein. Some binding calls cover weakened binding; strength is not graded here.

Protein sequences, listed by entry. Tags and fused reporters are not part of them.
UniProt Q6NZM9: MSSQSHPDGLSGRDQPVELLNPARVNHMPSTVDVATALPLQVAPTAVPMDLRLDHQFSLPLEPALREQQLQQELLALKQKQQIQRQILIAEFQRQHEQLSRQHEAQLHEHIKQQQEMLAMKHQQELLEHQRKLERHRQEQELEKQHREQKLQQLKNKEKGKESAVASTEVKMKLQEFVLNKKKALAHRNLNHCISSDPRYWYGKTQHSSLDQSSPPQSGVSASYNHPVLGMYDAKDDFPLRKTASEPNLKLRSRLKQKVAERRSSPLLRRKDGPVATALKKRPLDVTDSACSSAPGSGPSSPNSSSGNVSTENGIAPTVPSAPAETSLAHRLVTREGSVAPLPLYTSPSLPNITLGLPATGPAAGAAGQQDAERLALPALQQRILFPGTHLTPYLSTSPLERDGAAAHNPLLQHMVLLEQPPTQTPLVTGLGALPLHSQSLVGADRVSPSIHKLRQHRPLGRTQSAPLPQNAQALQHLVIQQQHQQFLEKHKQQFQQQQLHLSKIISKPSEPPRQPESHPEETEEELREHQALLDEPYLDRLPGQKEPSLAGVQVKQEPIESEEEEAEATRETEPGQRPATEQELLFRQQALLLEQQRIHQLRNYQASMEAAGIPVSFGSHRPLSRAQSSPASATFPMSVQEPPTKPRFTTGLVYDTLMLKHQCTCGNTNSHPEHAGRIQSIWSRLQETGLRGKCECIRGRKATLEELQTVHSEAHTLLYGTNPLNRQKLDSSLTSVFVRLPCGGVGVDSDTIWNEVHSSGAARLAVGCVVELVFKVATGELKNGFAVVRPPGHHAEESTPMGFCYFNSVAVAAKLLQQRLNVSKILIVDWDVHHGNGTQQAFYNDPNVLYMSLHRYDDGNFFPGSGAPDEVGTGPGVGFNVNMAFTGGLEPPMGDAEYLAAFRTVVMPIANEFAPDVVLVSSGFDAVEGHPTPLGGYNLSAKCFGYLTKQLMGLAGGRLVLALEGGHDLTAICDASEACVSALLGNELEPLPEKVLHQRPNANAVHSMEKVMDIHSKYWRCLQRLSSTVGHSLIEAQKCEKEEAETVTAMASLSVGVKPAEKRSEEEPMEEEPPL

Target: FLAG-Hdac4 (UniProt Q6NZM9)
Assay: co-IP; HEK293T cells cotransfected with Nanog and FLAG-Hdac4; lysed in modified RIPA buffer; anti-FLAG agarose beads overnight at 4 °C, normal IgG as negative control; blot with anti-Nanog and anti-FLAG

- binding: binds
B1: Nanog (protein, UniProt Q80Z64 1-305)
chain: MSVGLPGPHSLPSSEEASNSGNASSMPAVFHPENYSCLQGSATEMLCTEAASPRPSSEDLPLQGSPDSSTSPKQKLSSPEADKGPEEEENKVLARKQKMRTVFSQAQLCALKDRFQKQKYLSLQQMQELSSILNLSYKQVKTWFQNQRMKCKRWQKNQWLKTSNGLIQKGSAPVEYPSIHCSYPQGYLVNASGSLSMWGSQTWTNPTWSSQTWTNPTWNNQTWTNPTWSSQAWTAQSWNGQPWNAAPLHNFGEDFLQPYVQLQQNFSASDLEVNLEATRESHAHFSTPQALELFLNYSVTPPGEI
